Test results: PMC9825192
No constants are given. Whether binding was seen depends on the method and setting. Binding seen in cells or lysates may run through a third protein. Some entries that bind do so weakly or less than the wild type.

Protein sequences, listed by entry. Tags and fused reporters are not part of them.
UniProt Q9BYW2: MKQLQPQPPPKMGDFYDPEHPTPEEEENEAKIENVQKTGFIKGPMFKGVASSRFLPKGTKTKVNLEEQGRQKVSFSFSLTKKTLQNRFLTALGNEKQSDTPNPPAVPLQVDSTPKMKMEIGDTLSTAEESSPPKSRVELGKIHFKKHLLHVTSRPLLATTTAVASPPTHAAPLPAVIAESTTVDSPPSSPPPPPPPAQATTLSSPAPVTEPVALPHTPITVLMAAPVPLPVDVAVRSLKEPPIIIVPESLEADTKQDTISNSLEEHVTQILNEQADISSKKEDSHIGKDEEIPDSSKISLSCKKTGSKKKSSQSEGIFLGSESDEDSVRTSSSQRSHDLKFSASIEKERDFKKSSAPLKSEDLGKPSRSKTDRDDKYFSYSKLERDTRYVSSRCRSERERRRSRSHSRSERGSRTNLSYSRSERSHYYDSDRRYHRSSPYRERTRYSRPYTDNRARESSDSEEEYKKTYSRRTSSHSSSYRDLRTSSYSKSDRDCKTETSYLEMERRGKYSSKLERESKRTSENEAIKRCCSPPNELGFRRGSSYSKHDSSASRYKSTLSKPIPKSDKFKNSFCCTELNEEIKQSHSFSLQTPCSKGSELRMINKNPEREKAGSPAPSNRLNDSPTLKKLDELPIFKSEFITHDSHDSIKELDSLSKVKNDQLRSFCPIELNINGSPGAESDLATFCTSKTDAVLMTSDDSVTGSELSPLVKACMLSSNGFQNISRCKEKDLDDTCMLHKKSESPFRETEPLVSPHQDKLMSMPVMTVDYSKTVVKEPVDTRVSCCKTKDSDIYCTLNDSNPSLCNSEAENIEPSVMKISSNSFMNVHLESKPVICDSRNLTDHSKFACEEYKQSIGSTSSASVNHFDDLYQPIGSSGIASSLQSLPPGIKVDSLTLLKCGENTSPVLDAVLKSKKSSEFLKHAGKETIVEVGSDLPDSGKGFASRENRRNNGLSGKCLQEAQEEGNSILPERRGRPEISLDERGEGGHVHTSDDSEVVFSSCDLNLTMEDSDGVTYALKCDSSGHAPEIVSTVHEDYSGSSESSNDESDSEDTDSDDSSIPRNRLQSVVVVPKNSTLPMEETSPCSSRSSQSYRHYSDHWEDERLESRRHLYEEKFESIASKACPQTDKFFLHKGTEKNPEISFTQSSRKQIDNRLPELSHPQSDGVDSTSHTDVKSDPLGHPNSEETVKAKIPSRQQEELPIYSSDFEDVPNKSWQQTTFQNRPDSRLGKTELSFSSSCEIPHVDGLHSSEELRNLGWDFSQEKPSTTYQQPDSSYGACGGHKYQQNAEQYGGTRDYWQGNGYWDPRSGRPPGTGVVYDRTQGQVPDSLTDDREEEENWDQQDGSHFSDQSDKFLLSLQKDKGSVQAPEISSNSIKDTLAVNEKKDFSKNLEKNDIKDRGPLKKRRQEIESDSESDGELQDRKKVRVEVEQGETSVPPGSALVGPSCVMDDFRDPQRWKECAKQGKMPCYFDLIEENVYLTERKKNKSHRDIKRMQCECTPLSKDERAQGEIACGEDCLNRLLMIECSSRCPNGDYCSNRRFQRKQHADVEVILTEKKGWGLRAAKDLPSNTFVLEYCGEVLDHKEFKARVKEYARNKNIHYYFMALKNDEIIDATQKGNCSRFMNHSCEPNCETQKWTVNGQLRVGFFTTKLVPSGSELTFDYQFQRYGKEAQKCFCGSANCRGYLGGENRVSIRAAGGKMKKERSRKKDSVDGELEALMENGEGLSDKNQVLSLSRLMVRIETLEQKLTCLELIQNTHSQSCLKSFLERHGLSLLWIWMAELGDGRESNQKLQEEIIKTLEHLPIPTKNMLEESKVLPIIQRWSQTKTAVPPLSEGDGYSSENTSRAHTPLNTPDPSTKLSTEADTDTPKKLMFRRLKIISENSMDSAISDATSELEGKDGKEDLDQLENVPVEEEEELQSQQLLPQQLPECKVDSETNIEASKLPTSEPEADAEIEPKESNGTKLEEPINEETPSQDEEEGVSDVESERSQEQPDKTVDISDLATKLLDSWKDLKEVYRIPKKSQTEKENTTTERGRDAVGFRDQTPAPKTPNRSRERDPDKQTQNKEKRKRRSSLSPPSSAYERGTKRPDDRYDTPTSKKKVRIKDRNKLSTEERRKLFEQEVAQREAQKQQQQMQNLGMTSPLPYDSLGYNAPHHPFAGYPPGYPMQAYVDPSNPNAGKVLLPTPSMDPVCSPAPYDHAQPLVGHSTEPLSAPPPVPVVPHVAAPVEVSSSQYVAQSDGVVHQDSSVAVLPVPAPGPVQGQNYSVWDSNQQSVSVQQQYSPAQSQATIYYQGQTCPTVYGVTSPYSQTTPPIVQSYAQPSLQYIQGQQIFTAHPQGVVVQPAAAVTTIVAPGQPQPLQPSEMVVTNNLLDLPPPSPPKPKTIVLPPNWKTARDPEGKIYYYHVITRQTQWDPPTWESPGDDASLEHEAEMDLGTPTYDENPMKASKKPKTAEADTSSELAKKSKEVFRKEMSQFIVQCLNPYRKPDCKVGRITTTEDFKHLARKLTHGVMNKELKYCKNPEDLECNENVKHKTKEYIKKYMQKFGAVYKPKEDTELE
UniProt Q9HCK8: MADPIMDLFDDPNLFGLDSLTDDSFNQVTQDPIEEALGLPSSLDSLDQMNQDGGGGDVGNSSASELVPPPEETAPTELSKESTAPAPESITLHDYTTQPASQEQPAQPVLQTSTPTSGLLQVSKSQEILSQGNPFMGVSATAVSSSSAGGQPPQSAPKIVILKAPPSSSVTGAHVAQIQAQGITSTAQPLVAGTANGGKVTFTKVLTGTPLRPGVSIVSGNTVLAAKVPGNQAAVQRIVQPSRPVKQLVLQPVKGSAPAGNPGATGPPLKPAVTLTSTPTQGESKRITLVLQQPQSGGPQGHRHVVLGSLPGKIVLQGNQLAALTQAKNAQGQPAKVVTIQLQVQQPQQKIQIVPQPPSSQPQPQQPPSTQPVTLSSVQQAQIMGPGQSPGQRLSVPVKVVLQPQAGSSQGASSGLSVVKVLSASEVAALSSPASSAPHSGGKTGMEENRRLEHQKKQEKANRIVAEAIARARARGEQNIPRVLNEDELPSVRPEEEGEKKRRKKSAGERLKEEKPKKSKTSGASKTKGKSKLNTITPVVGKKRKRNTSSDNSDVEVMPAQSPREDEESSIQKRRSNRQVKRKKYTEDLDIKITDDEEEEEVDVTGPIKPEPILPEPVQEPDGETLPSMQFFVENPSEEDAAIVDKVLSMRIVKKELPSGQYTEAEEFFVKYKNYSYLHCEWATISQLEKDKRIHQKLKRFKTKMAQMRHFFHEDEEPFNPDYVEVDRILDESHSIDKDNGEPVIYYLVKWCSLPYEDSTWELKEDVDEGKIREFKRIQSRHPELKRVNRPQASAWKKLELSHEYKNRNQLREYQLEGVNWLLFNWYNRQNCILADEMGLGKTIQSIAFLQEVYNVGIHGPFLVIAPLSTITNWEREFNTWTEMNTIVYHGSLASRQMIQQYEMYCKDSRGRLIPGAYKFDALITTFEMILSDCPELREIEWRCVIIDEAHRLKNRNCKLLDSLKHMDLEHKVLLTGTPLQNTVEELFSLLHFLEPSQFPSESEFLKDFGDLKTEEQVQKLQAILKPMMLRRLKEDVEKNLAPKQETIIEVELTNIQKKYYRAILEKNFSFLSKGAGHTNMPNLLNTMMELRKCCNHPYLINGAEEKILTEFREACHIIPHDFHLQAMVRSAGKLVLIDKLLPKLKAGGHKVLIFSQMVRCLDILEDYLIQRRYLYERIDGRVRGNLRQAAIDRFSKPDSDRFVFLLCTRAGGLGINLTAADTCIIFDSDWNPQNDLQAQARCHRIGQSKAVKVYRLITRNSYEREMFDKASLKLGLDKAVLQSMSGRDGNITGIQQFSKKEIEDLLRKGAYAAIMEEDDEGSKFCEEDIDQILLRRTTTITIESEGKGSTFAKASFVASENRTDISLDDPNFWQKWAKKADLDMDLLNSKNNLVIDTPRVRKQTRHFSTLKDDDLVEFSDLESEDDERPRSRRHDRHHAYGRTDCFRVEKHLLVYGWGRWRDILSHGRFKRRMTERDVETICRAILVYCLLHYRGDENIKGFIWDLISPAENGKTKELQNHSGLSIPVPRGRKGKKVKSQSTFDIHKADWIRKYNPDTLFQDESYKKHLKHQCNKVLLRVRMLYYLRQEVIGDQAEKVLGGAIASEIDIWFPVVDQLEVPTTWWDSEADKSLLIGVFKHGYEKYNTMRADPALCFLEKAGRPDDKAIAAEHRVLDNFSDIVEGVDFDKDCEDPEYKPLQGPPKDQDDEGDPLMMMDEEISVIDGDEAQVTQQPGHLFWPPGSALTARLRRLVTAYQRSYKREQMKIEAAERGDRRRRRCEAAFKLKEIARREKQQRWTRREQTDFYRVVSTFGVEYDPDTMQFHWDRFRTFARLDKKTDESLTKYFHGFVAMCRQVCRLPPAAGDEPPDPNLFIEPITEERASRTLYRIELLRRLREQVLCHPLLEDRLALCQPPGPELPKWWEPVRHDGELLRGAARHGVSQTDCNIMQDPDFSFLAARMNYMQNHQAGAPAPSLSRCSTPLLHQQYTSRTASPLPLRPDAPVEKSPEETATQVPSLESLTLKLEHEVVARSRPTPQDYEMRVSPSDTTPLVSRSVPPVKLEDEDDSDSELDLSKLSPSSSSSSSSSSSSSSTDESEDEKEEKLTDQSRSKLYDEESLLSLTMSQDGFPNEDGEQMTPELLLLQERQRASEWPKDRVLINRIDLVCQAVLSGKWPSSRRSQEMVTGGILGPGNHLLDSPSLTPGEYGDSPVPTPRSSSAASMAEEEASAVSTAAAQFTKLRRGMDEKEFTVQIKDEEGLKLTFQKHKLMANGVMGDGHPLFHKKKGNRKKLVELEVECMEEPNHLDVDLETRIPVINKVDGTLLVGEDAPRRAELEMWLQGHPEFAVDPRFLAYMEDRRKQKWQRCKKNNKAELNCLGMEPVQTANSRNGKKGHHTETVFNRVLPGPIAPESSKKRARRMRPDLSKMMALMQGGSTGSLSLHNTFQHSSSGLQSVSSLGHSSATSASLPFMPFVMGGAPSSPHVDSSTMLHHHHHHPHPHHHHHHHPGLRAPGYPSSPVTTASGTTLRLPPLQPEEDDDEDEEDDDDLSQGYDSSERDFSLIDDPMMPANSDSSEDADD

How the values were obtained:
[1] = biological target: SETD2 (human (endogenous in iPSC-derived NPCs)) (UniProt Q9BYW2); test: co-IP; 1 mg hiNPC nuclear fraction, 1 ug primary antibody overnight at 4°C, Protein A or G Sepharose, washed with NLB (150 mM KCl, 0.3% NP-40); western blot; for the CHD8 IP also after RNase A, DNase I or with EtBr
[2] = biological target: chromodomain helicase DNA-binding protein 8 (human (endogenous in iPSC-derived NPCs)) (UniProt Q9HCK8); test: as above

- binding [1]: binds
- binding [2]: binds
B1: heterogeneous nuclear ribonucleoprotein L (protein, UniProt P14866 1-589)
chain: MSRRLLPRAEKRRRRLEQRQQPDEQRRRSGAMVKMAAAGGGGGGGRYYGGGSEGGRAPKRLKTDNAGDQHGGGGGGGGGAGAAGGGGGGENYDDPHKTPASPVVHIRGLIDGVVEADLVEALQEFGPISYVVVMPKKRQALVEFEDVLGACNAVNYAADNQIYIAGHPAFVNYSTSQKISRPGDSDDSRSVNSVLLFTILNPIYSITTDVLYTICNPCGPVQRIVIFRKNGVQAMVEFDSVQSAQRAKASLNGADIYSGCCTLKIEYAKPTRLNVFKNDQDTWDYTNPNLSGQGDPGSNPNKRQRQPPLLGDHPAEYGGPHGGYHSHYHDEGYGPPPPHYEGRRMGPPVGGHRRGPSRYGPQYGHPPPPPPPPEYGPHADSPVLMVYGLDQSKMNCDRVFNVFCLYGNVEKVKFMKSKPGAAMVEMADGYAVDRAITHLNNNFMFGQKLNVCVSKQPAIMPGQSYGLEDGSCSYKDFSESRNNRFSTPEQAAKNRIQHPSNVLHFFNAPLEVTEENFFEICDELGVKRPSSVKVFSGKSERSSSGLLEWESKSDALETLGFLNHYQMKNPNGPYPYTLKLCFSTAQHAS
